# According to PubChem BioAssay AID2685 (National Center for Advancing Translational Sciences (NCATS), 2010):
# The other results are listed elsewhere or left out. The main result of the screen is listed elsewhere. These columns were measured beside it and carry no call. The list favours compounds with an active or inconclusive main result. The note in brackets gives the kind of curve behind each potency; many fits are weak.
# Test: qHTS Assay for Lipid Storage Modulators in Drosophila S3 Cells;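 on cell number change: cells counted by Cell Tracker Red CMTPX staining in the red channel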
# Settings: BODIPY lipid droplet fluorescence, 18-24 h; for cell number change: measured here: cell count max response, cells fed with added oleic acid
# How it was run: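 Laser-scanning cytometry quantifies lipid droplet accumulation (500–530 nm total intensity; droplet/cell object ratio) in oleic acid-fed (400 uM added) Drosophila S3 cells treated with a concentration series. 20 uM Triacsin C defined 100% inhibition.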
# [1] = measured here: cell number channel AC50, cells fed with added oleic acid
# [2] = measured here: lipid fluorescence (Fed channel) AC50, cells fed with added oleic acid
SMILES,cell number change,AC50 [1],AC50 [2]
CCCCc1ccc(NC(=O)Nc2cccnc2)cc1,37.8%,–,–
N#C/C(=C/c1ccc(O)c(O)c1)c1nc2ccccc2[nH]1,-37.7%,"29.1 µM [falling, single point]","29.1 µM [falling, single point]"
CCOC(=O)C1=C(C)N=c2s/c(=C\c3ccc(OCC(=O)O)cc3)c(=O)n2C1c1ccccc1OC (stereo not given),-28.1%,–,"29.1 µM [falling, single point]"
Cc1cc(C(=O)NC(C)c2ccccc2)c2cc(F)ccc2n1 (stereo not given),21.7%,–,"25.9 µM [falling, single point]"
CCc1ccccc1NC(=O)CN1CCN(C(=O)CNC(=O)c2ccc(-c3ccccc3)cc2)CC1,-14%,–,"16.4 µM [rising, single point]"
CC(C)n1nnnc1SCC(=O)Nc1ccc2c(c1)OCCO2,-0.195%,–,"8.2 µM [rising, partial curve]"
O=C(/C=C/c1ccc(Cl)cc1Cl)c1ccc[nH]1,-58.6%,"32.6 µM [falling, single point]",–
COc1ccc(C(CNC(=O)c2ccc(Br)o2)N2CCN(C)CC2)cc1 (stereo not given),-34.1%,–,"25.9 µM [falling, partial curve]"
Cc1ccc(-c2cnc3cc(C)nn3c2)cc1,51.9%,"2.06 µM [rising, full curve]",–
CC(C)(C)n1ncc2c(=O)n(CC(=O)c3ccc(Cl)cc3)cnc21,-4.75%,"0.731 µM [rising, full curve]","1.03 µM [rising, full curve]"
CCc1nnc(NC(=O)CCC(=O)N2CCN(CCOc3ccc(C)cc3)CC2)s1,-8.56%,–,"0.461 µM [falling, full curve, poor fit]"
C/C(CC(=O)Nc1cccc(Cl)c1Cl)=N\NC(=O)c1ccccc1C,-0.289%,–,"0.461 µM [falling, full curve, poor fit]"
Cc1ccc(/C=C/C(=O)OCn2nnc3ccccc3c2=O)o1,12.3%,–,"13 µM [rising, partial curve]"
CCOc1ccc(NC(=O)CSc2ccc(-c3ccco3)nn2)cc1,25.7%,–,"29.1 µM [rising, single point]"
CC(C)N(Cc1ccccc1)C(=O)c1cccs1,-25.8%,–,"18.4 µM [falling, single point]"
COc1ccccc1CNC(=O)c1cccnc1,1.92%,–,"6.51 µM [rising, single point]"
Cc1ccc(S(=O)(=O)N(C)C)cc1NC(=O)C1CCCN(C(=O)c2ccc(Cl)cc2)C1 (stereo not given),10.8%,–,"0.92 µM [rising, full curve]"
Cc1cc(C)c2c(=O)n(CC(=O)NCCCN3CCN(c4ccccc4F)CC3)sc2n1,-108%,"23.1 µM [falling, partial curve]","25.9 µM [falling, partial curve]"
COc1ccc(COCC(O)CN2CCC(CN3C(=O)c4cccc5cccc(c45)C3=O)CC2)cc1OC (stereo not given),-16.5%,"1.84 µM [falling, partial curve]","3.66 µM [falling, partial curve, poor fit]"
CC(C)c1ccc(C(=O)CC2(O)C(=O)N(CN3CCOCC3)c3ccccc32)cc1 (stereo not given),143%,–,–

SMILES,cell number change,AC50 [1],AC50 [2]
S=C(Nc1ccc(N2CCOCC2)cc1)Nc1ccc2snnc2c1,–,"0.00517 µM [rising, full curve, poor fit]","0.92 µM [rising, full curve, poor fit]"
Cc1cccc(OCC(=O)O/N=C(\N)Cc2ccc([N+](=O)[O-])cc2)c1,16.1%,–,"25.9 µM [rising, partial curve, poor fit]"
Cc1cc(C(=O)CN2C(=O)C(=O)N(Cc3ccccc3)C2=O)c(C)n1-c1ccccc1F,–,–,"0.13 µM [rising, single point]"
COc1ccc(CNS(=O)(=O)NCc2ccc(OC)c(OC)c2)cc1,0.271%,–,–
COC(OC)C1Nc2ccccc2C(=O)N1c1ccc(F)cc1 (stereo not given),-8.87%,–,"0.13 µM [rising, full curve, poor fit]"
CCc1cccc(NC(=O)CCS(=O)(=O)c2ccc(Br)cc2)c1,-15.6%,–,"29.1 µM [falling, single point]"
CCc1ccc(OCC(=O)Nc2ccc(S(=O)(=O)N3CCOCC3)cc2)cc1,87%,"14.6 µM [rising, partial curve]",–
CC1CC(NS(=O)(=O)c2cc3c4c(c2)CCN4C(=O)CC3)CC(C)(C)C1 (stereo not given),-8.21%,–,"2.31 µM [falling, single point]"
CCn1c(COc2ccc(Cl)cc2)nnc1SCc1nc2ccccc2[nH]1,–,–,"0.651 µM [rising, partial curve, poor fit]"
CCc1ccc(C(CNc2nc(C(F)(F)F)nc3ccccc23)N(C)C)cc1 (stereo not given),2.52%,–,"29.1 µM [rising, single point]"
CCCSc1nnc(NC(=O)c2sc3nc(-c4cccs4)ccc3c2N)s1,101%,–,"7.31 µM [rising, single point]"
CCOC(=O)C1CCN(C(=O)c2cccnc2)CC1,0.718%,–,"0.231 µM [falling, full curve, poor fit]"
Cc1nn(C)c(Cl)c1C(=O)NCC(=O)O,-30.3%,–,"29.1 µM [falling, single point]"
COc1ccc(NC(=O)CCCc2ccccc2)cc1OC,-4.4%,–,–
COc1cccc(C2NC(=O)c3sc(=S)n(-c4ccccc4)c3N2)c1 (stereo not given),21.4%,–,"3.26 µM [falling, partial curve]"
Cc1ccc2c3c([nH]c2c1)C(=O)CC(C)(C)S3,10.6%,–,–
CCC(C)c1ccc(S(=O)(=O)N2CCN(C(C)CC(=O)O)CC2)cc1 (stereo not given),-48.7%,–,–
COc1ccc(CCNC(=O)Cn2c(=O)n(Cc3ccco3)c(=O)c3ccc(Cl)cc32)cc1OC,-52.6%,"16.4 µM [falling, partial curve]","0.146 µM [rising, full curve, poor fit]"
O=C(/C=C/c1ccccc1Cl)NCCCn1ccnc1,-7.94%,–,–
O=C(NC1CCCCC1)C1CCN(C(=O)NCc2ccccc2)CC1,7.84%,–,"0.00411 µM [falling, full curve, poor fit]"

# No new results follow: eleven of the compounds above.
SMILES,cell number change,AC50 [1],AC50 [2]
CC1CC(NS(=O)(=O)c2cc3c4c(c2)CCN4C(=O)CC3)CC(C)(C)C1 (stereo not given),-8.21%,–,"2.31 µM [falling, single point]"
CCn1c(COc2ccc(Cl)cc2)nnc1SCc1nc2ccccc2[nH]1,–,–,"0.651 µM [rising, partial curve, poor fit]"
CCc1ccc(C(CNc2nc(C(F)(F)F)nc3ccccc23)N(C)C)cc1 (stereo not given),2.52%,–,"29.1 µM [rising, single point]"
CCCSc1nnc(NC(=O)c2sc3nc(-c4cccs4)ccc3c2N)s1,101%,–,"7.31 µM [rising, single point]"
CCOC(=O)C1CCN(C(=O)c2cccnc2)CC1,0.718%,–,"0.231 µM [falling, full curve, poor fit]"
Cc1nn(C)c(Cl)c1C(=O)NCC(=O)O,-30.3%,–,"29.1 µM [falling, single point]"
COc1ccc(NC(=O)CCCc2ccccc2)cc1OC,-4.4%,–,–
COc1cccc(C2NC(=O)c3sc(=S)n(-c4ccccc4)c3N2)c1 (stereo not given),21.4%,–,"3.26 µM [falling, partial curve]"
Cc1ccc2c3c([nH]c2c1)C(=O)CC(C)(C)S3,10.6%,–,–
CCC(C)c1ccc(S(=O)(=O)N2CCN(C(C)CC(=O)O)CC2)cc1 (stereo not given),-48.7%,–,–
COc1ccc(CCNC(=O)Cn2c(=O)n(Cc3ccco3)c(=O)c3ccc(Cl)cc32)cc1OC,-52.6%,"16.4 µM [falling, partial curve]","0.146 µM [rising, full curve, poor fit]"

# Going on with the list:

SMILES,cell number change,AC50 [1],AC50 [2]
O=C(O)c1cc([N+](=O)[O-])c(Nc2cccc3ccccc23)c([N+](=O)[O-])c1,-4.85%,–,–
NC(=O)NCC12CC3CC(CC(C3)C1)C2,11.2%,–,"3.66 µM [rising, single point]"
O=C(NCCN1CCCCCC1)C1CCN(S(=O)(=O)N2CCOCC2)CC1,–,"6.51 µM [falling, single point]","6.51 µM [falling, single point]"
CN(C)S(=O)(=O)c1cccc(COc2cccnc2[N+](=O)[O-])c1,-4.5%,–,"1.84 µM [falling, full curve]"
O=S(=O)(NCCSc1ccccc1)c1ccc(F)cc1,-47%,"20.6 µM [falling, single point]",–
O=[N+]([O-])c1c(C(Cl)Cl)nn(-c2ccc(Cl)cc2)c1N1CCCCC1,-30.2%,"1.46 µM [falling, full curve, poor fit]","4.61 µM [falling, single point]"
COCCCn1c(SCC(=O)Nc2ccc(C(C)=O)cc2)nc2ccccc2c1=O,-34.1%,"13 µM [falling, partial curve]","2.59 µM [falling, partial curve]"
COc1ccc(C2C(C(C)=O)=C(C)N=c3s/c(=C/c4ccc5c(c4)OCO5)c(=O)n32)cc1 (stereo not given),74.1%,"0.651 µM [rising, full curve]","1.03 µM [rising, full curve]"
COc1ccccc1-c1nnc(SCC(=O)N2CCCC2)o1,9.58%,–,"0.116 µM [rising, single point]"
O=C(N/N=C\c1cc(Br)ccc1O)c1ccc(S(=O)(=O)N2CCCCC2)cc1,-36%,"32.6 µM [falling, single point]",–
CC(Sc1nnc(-c2ccco2)n1C)C(=O)N1C(C)CCCC1C (stereo not given),-33.7%,"35.5 µM [falling, single point]","14.1 µM [falling, single point]"
CCOC(=O)c1ccc(NC(=O)N2CCc3ccccc32)cc1,-69.5%,"25.9 µM [falling, single point]","20.6 µM [falling, single point]"
CCOc1ccccc1OC(=O)c1ccco1,-10.9%,"0.82 µM [falling, full curve]","0.82 µM [falling, full curve, poor fit]"
Cc1cccc2cc(C#N)c(NCCNC(=S)NCCCN3CCOCC3)nc12,–,–,"0.517 µM [falling, single point]"
CCC(C(=O)OCC(=O)Nc1ccc(OC)cc1OC)c1ccccc1 (stereo not given),34.4%,"29.1 µM [rising, single point]",–
CCOC(=O)COC(=O)c1ccc(O)cc1,-5.68%,–,"0.651 µM [falling, single point]"
NS(=O)(=O)c1ccc(Nc2nc(-c3cccc([N+](=O)[O-])c3)cs2)cc1,-25.2%,"0.651 µM [rising, partial curve, poor fit]","1.46 µM [rising, partial curve]"
CCN(CC)S(=O)(=O)c1cccc(C(=O)OC2CC(C)OC2=O)c1 (stereo not given),25.6%,–,"29.1 µM [rising, single point]"
Cc1ccc(S(=O)(=O)CCc2ccncc2)cc1,5.31%,–,–
Cc1ccc(N(C(C)C(=O)N2CCN(Cc3ccccc3)CC2)S(C)(=O)=O)cc1 (stereo not given),-9.09%,–,"2.91 µM [falling, single point]"
